Part of at least one peptide drawing is inferred or uncertain, most often the ends. Non-standard residues stand in square brackets, D forms with d. Residues, ends and D or L forms follow the SMILES beside them. *: point of attachment. Acetyl(1-pyrenyl) = O=C(Cc1ccc2ccc3cccc4ccc1c2c34)*; Dap = NC[C@H](N)C(=O)O
Experiments:
[1] = biological target: T1, cAMP-dependent protein kinase (PKA) (Mus musculus, UniProt P05132); assay: Km and Vmax of pyrene-labeled peptides as PKA substrates in the presence of 14-3-3τ; type: biochemical, murine; set-up: made in house; details: PKA substrate, 10 nM enzyme, 30 μM 14-3-3τ, 1 mM ATP, 30° C., pH 7.5
[2] = biological target: T1, cAMP-dependent protein kinase (PKA); assay: Assay dependence on 14-3-3τ: PKA-induced fluorescence change of peptide P5 with Rose Bengal; type: biochemical, murine; set-up: made in house; details: absence of 14-3-3τ; 5 μM P5, 25 μM Rose Bengal, 1.4 μM PKA, 1 mM ATP

Structure (SMILES) | Km [1] | Vmax [1] | change in fluorescence intensity [2]
C[C@@H](O)[C@H](NC(=O)[C@H](CCCNC(=N)N)NC(=O)CNC(=O)CCCCCNC(=O)Cc1ccc2ccc3cccc4ccc1c2c34)C(=O)NCC(=O)N[C@@H](CCCNC(=N)N)C(=O)N[C@@H](CCCNC(=N)N)C(=O)N[C@@H](Cc1ccccc1)C(=O)N[C@@H](CO)C(=O)N[C@@H](Cc1ccc(O)cc1)C(=O)N1CCC[C@H]1C(N)=O [Peptide P9] | 1600 ± 900 nM | 7.1 ± 1.2 µmol/min/mg | –
CC(=O)NCC(=O)N[C@@H](CCCNC(=N)N)C(=O)N[C@H](C(=O)NCC(=O)N[C@@H](CCCNC(=N)N)C(=O)N[C@@H](CCCNC(=N)N)C(=O)N[C@@H](CNC(=O)Cc1ccc2ccc3cccc4ccc1c2c34)C(=O)N[C@@H](CO)C(=O)N[C@@H](Cc1ccc(O)cc1)C(=O)N1CCC[C@H]1C(N)=O)[C@@H](C)O [Peptide P2, Ac-Gly-Arg-Thr-Gly-Arg-Arg-Dap(Pyr)-Ser-Tyr-Pro-amide] (Ac-GRTGRR[Dap](Acetyl(1-pyrenyl))SYP-NH2) | 7100 ± 1900 nM | 8.4 ± 1.2 µmol/min/mg | –
CC(=O)N[C@@H](CNC(=O)Cc1ccc2ccc3cccc4ccc1c2c34)C(=O)N[C@@H](CCCNC(=N)N)C(=O)N[C@H](C(=O)NCC(=O)N[C@@H](CCCNC(=N)N)C(=O)N[C@@H](CCCNC(=N)N)C(=O)N[C@@H](Cc1ccccc1)C(=O)N[C@@H](CO)C(=O)N[C@@H](Cc1ccc(O)cc1)C(=O)N1CCC[C@H]1C(N)=O)[C@@H](C)O [Peptide P5] (Ac-[Dap](Acetyl(1-pyrenyl))RTGRRFSYP-NH2) | 1700 ± 400 nM | 5.7 ± 0.4 µmol/min/mg | no change in fluorescence intensity

Reference: patent US20100041068A1, “DEEPLY QUENCHED ENZYME SENSORS AND BINDING SENSORS” (priority 2006, published 2010)
